{"source": "PubChem BioAssay AID720505 – Drosophila RNAi Screening Center – 2013", "screen": "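Knock-downs that reduce calcium influx once internal stores are emptied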 (primary screen)", "system": "Drosophila S2R+ cells", "reagents": "long dsRNA against Drosophila genes", "challenge": "thapsigargin (2 µM) in calcium-free buffer to empty internal stores, then 2 mM calcium added back", "detection": "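Stores emptied by 2 µM thapsigargin without calcium, then 2 mM calcium re-added; fluo-4 fluorescence followed by FLIPR in 384-well plates, per-well averaged endpoint, raw; two screen passes, some wells retested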", "reading the numbers": "calcium signal and retest calcium signal: higher = more calcium entry after store depletion", "hit rule": "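Knock-downs counted as hits when calcium entry dropped relative to STIM1 positive and Rho1 negative controls present on each plate; roughly 1500 genes called, with reductions of differing size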", "meaning of the calls": "active = called as lowering calcium entry; inactive = not called", "note": "The deposit covers about 20,000 reagents; this is an unselected part of those with a known target gene and a result. In the full data, about 2,100 (10%) got an active call. 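Raw plate signals without normalisation; calls rest on control-based scores that were not deposited; replicate 2 separates called from uncalled poorly.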 A plus sign joins genes that one reagent is predicted to hit. Not given: the amount of reagent, the time to read-out."}
{"target gene":"AdamTS-A (ADAM metallopeptidase with thrombospondin type 1 motif A)","dsRNA":"DRSC14992","calcium signal, replicate 1":111,"calcium signal, replicate 2":104,"outcome":"inactive"}
{"target gene":"AdamTS-A (ADAM metallopeptidase with thrombospondin type 1 motif A)","dsRNA":"DRSC15966","calcium signal, replicate 1":96.2,"calcium signal, replicate 2":94.6,"outcome":"inactive"}
{"target gene":"CG13585","dsRNA":"DRSC04221","calcium signal, replicate 1":155,"calcium signal, replicate 2":224,"outcome":"inactive"}
{"target gene":"CG5282","dsRNA":"DRSC11775","calcium signal, replicate 1":112,"calcium signal, replicate 2":93.5,"outcome":"inactive"}
{"target gene":"sqh (spaghetti squash)","dsRNA":"DRSC18837","calcium signal, replicate 1":133,"calcium signal, replicate 2":102,"outcome":"inactive"}
{"target gene":"CG3823","dsRNA":"DRSC18325","calcium signal, replicate 1":116,"calcium signal, replicate 2":137,"outcome":"inactive"}
{"target gene":"CG14204","dsRNA":"DRSC19559","calcium signal, replicate 1":73.1,"calcium signal, replicate 2":148,"outcome":"active"}
{"target gene":"CG13920","dsRNA":"DRSC08389","calcium signal, replicate 1":199,"calcium signal, replicate 2":118,"outcome":"inactive"}
{"target gene":"CG10063","dsRNA":"DRSC09688","calcium signal, replicate 1":64.6,"calcium signal, replicate 2":70.5,"outcome":"inactive"}
{"target gene":"CG40551 (retired record)","dsRNA":"DRSC21229","calcium signal, replicate 1":170,"calcium signal, replicate 2":117,"outcome":"inactive"}
{"target gene":"d-cup (davis-cup)","dsRNA":"DRSC14846","calcium signal, replicate 1":55.8,"calcium signal, replicate 2":204,"outcome":"active"}
{"target gene":"CG7031","dsRNA":"DRSC16178","calcium signal, replicate 1":82.2,"calcium signal, replicate 2":116,"outcome":"active"}
{"target gene":"CG7031","dsRNA":"DRSC23028","calcium signal, replicate 1":66.7,"calcium signal, replicate 2":113,"outcome":"inactive"}
{"target gene":"CG8677 + CG31626","dsRNA":"DRSC01838","calcium signal, replicate 1":75.5,"calcium signal, replicate 2":4443,"retest calcium signal, replicate 1":7412,"retest calcium signal, replicate 2":122,"outcome":"inactive"}
{"target gene":"CG8501","dsRNA":"DRSC07198","calcium signal, replicate 1":245,"calcium signal, replicate 2":178,"outcome":"inactive"}
{"target gene":"gdrd (goddard)","dsRNA":"DRSC10020","calcium signal, replicate 1":92.8,"calcium signal, replicate 2":118,"outcome":"inactive"}
{"target gene":"mRpL12 (mitochondrial ribosomal protein L12)","dsRNA":"DRSC10467","calcium signal, replicate 1":145,"calcium signal, replicate 2":99.7,"outcome":"inactive"}
{"target gene":"Est-Q (Esterase Q)","dsRNA":"DRSC11835","calcium signal, replicate 1":101,"calcium signal, replicate 2":86.6,"outcome":"inactive"}
{"target gene":"lqfR (liquid facets-Related)","dsRNA":"DRSC14703","calcium signal, replicate 1":137,"calcium signal, replicate 2":163,"outcome":"inactive"}
{"target gene":"lqfR (liquid facets-Related)","dsRNA":"DRSC14704","calcium signal, replicate 1":173,"calcium signal, replicate 2":116,"outcome":"inactive"}

2 entries already listed, sorted by “calcium signal, replicate 1”, descending:
{"target gene":"mRpL12 (mitochondrial ribosomal protein L12)","dsRNA":"DRSC10467","calcium signal, replicate 1":145,"calcium signal, replicate 2":99.7,"outcome":"inactive"}
{"target gene":"gdrd (goddard)","dsRNA":"DRSC10020","calcium signal, replicate 1":92.8,"calcium signal, replicate 2":118,"outcome":"inactive"}
